These are yes or no findings as the source states them, for the method shown. Binding seen in cells or lysates may run through a third protein. A result given as binding can be weak or reduced; the word gives no strength. Where a sequence is shown, tags or fusion partners need not be part of it.
Biological target: T1, GST-tagged human Cbl-c (human) (UniProt Q9ULV8)
T1 sequence: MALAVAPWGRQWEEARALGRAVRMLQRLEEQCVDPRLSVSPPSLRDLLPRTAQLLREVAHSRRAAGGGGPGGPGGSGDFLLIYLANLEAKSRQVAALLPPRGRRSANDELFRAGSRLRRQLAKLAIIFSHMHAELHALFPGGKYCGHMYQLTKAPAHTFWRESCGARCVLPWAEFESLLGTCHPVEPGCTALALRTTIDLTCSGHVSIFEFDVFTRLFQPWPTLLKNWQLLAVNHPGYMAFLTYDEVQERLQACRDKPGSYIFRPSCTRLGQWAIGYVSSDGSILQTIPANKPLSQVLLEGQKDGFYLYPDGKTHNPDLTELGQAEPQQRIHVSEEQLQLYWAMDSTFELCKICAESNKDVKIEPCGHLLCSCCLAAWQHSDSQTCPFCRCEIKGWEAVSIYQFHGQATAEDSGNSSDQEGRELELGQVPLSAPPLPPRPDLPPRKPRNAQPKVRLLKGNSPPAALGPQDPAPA
Test: pull-down; GST pull-down on Glutathione Sepharose 4B from 300 µg whole cell lysate of co-transfected HEK293T cells, overnight at 4°C, five washes in lysis buffer (10 mM Tris-HCl pH 7.5, 150 mM NaCl, 5 mM EDTA, 1% Triton X-100), immunoblot; in Figure 2B cells with 500 µM Sorafenib or DMSO for 90 min before lysis

Substance | binding
FLAG-Enigma ΔLIM2-3 (human) (domain or fragment) | binds
FLAG-Enigma ΔLIM3 (human) (domain or fragment) | binds

Reference: paper PMC3900716
